For assay [1], the target named is K106C Ec-MscL (Escherichia coli mechanosensitive channel of large conductance, cysteine mutant) (Escherichia coli) (UniProt P0A742). Briefly: non-reducing SDS-PAGE with Western blot (dimer band); purified His-tagged cysteine mutants, 5 ug in 50 mM KPi pH 7.5, 150 mM NaCl, 4 mM DM, 22°C; nonreducing sample buffer with iodoacetamide; blot with Penta.His; samples of the MTS-PEG5000 versus DHS competition experiment, mock lanes included; both purified. (Immunoblotting shows a protein as a band on a membrane.)

For assay [2], the target named is A110C Ec-MscL (Escherichia coli mechanosensitive channel of large conductance, cysteine mutant) (Escherichia coli) (UniProt P0A742). Described as above.

No constants are given. Whether binding was seen depends on the method and setting. Some binding calls cover weakened binding; strength is not graded here.

B1: K106C Ec-MscL (Escherichia coli mechanosensitive channel of large conductance, cysteine mutant) (protein, UniProt P0A742 1-136)
chain: MSIIKEFREFAMRGNVVDLAVGVIIGAAFGKIVSSLVADIIMPPLGLLIGGIDFKQFAVTLRDAQGDIPAVVMHYGVFIQNVFDFLIVAFAIFMAIKLINKLNRKCEEPAAAPAPTKEEVLLTEIRDLLKEQNNRS
For B1, the binding result in assay [1] is “binds weakly”.

B2: A110C Ec-MscL (Escherichia coli mechanosensitive channel of large conductance, cysteine mutant) (protein, UniProt P0A742 1-136)
chain: MSIIKEFREFAMRGNVVDLAVGVIIGAAFGKIVSSLVADIIMPPLGLLIGGIDFKQFAVTLRDAQGDIPAVVMHYGVFIQNVFDFLIVAFAIFMAIKLINKLNRKKEEPCAAPAPTKEEVLLTEIRDLLKEQNNRS
Consider B2, for which, in assay [2], the binding result is “binds weakly”.
